These are yes or no findings as the source states them, for the method shown. For some of these results: Binding calls can cover weak binding; strength is not graded here.

Assay in all cases: two-hybrid; GAL4 Matchmaker system, yeast AH109; GAL4AD-LFMADS (pGADT7, prey) with GAL4BD-LFMADS (pGBKT7, bait); 10^6 cells spotted, growth scored on SD/–His–Leu–Trp, control SD/–Leu–Trp
Assay [1] has as its target Lilium formosanum MADS-box protein 4 (LFMADS4) (Lilium formosanum) (UniProt E3VTL2).
For assay [2], the target named is Lilium formosanum MADS-box protein 2 (LFMADS2) (Lilium formosanum) (UniProt I6RAP0).
The target in assay [3] is Lilium formosanum MADS-box protein 7 (LFMADS7) (Lilium formosanum).
The target of assay [4] is Lilium formosanum MADS-box protein 6 (LFMADS6) (Lilium formosanum).
Assay [5] has as its target Lilium formosanum MADS-box protein 1 (LFMADS1) (Lilium formosanum).
The target in assay [6] is Lilium formosanum MADS-box protein 3 (LFMADS3) (Lilium formosanum).

As for “Lilium formosanum MADS-box protein 1 (LFMADS1) (from UniProt A0A023ZT28)”, the binding result in assay [1], in assay [2], in assay [3] and in assay [4] was “binds” throughout.

For the substance “Lilium formosanum MADS-box protein 2 (LFMADS2) (from UniProt I6RAP0)”, the binding entry in assay [5] is “binds”; in assay [4], “no binding”.

Take “Lilium formosanum MADS-box protein 3 (LFMADS3) (from UniProt A0A023ZTM0)”: the binding entry in assay [4] is recorded as “no binding”.

Consider “Lilium formosanum MADS-box protein 4 (LFMADS4) (from UniProt E3VTL2)”, for which the binding result in assay [3] and in assay [5] was “binds” each time.

For the substance “Lilium formosanum MADS-box protein 6 (LFMADS6) (from UniProt A0A023ZT32)”, the binding result is “no binding” in assay [2], “no binding” in assay [3], “binds weakly” in assay [5] and “no binding” in assay [6].

Consider “Lilium formosanum MADS-box protein 7 (LFMADS7) (from UniProt A0A023ZSM5)”, for which the binding result in assay [1] is “binds weakly”; in assay [5] it was “binds weakly”; in assay [4], “no binding”.

These data come from paper PMC6121541.
